In doi:10.1101/2023.08.09.552599:
These are yes or no findings as the source states them, for the method shown. Binding seen in cells or lysates may run through a third protein. Some binding calls cover weakened binding; strength is not graded here.

Amino acid sequences for entries named in this document (tags omitted). A change or cut given only in a name is not applied to a line headed by its entry. Chains listed by the source or under a name are the forms on record and can include a tag or linker.
UniProt O95166: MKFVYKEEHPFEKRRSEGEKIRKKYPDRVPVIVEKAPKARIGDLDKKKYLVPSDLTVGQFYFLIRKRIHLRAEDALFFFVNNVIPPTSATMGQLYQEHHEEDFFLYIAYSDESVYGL
UniProt Q9GZM5: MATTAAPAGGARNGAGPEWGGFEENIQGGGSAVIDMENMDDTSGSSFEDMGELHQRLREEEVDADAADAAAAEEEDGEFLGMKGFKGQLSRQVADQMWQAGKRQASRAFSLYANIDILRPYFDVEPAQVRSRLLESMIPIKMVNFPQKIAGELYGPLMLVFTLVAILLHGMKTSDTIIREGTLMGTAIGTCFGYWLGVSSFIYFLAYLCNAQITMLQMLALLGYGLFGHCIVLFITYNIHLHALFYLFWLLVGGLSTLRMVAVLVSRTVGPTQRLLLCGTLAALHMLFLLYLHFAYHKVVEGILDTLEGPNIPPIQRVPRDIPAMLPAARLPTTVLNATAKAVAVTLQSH
FLAG–YIPF3LIR2 A_3 (Y121Z, V124A) (Q9GZM5, form named): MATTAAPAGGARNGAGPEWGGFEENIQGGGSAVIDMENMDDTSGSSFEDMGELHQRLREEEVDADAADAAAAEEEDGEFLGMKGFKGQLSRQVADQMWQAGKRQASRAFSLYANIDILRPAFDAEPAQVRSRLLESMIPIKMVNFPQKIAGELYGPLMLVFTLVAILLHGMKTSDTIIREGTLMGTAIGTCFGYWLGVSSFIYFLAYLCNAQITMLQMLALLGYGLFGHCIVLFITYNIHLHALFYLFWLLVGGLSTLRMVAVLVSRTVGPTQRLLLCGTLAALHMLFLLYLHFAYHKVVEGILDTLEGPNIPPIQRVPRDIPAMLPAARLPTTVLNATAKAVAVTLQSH
UniProt Q9BSR8: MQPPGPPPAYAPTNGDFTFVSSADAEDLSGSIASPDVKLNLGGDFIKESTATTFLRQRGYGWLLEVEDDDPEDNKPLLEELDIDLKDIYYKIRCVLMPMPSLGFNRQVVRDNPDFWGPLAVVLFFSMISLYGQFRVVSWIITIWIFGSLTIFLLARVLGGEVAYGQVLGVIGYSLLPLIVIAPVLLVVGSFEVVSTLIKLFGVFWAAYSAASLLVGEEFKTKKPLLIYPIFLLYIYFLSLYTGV

Columns and labels:
Assay in all cases: co-IP
FLAG-tagged GABARAP = FLAG-tagged GABARAP (UniProt O95166)
[1] = molecular target: FLAG–YIPF3LIR2A_2 (Y112A, I115A) (human) (UniProt Q9GZM5)
[2] = molecular target: FLAG–YIPF3LIR2 A_3 (Y121Z, V124A) (human) (UniProt Q9GZM5)
[3] = molecular target: FLAG–YIPF3LIR2A_1 (F47A, M50A) (human) (UniProt Q9GZM5)
FLAG–YIPF3 (human) = FLAG–YIPF3 (human) (UniProt Q9GZM5)

In the case of “endogenous YIPF3 (from UniProt Q9GZM5 1-350)”, the binding (FLAG-tagged GABARAP) is reported as “binds”.

With “endogenous YIPF4 (from UniProt Q9BSR8 1-244)” the binding [1] was “binds”, the binding [2] was “binds” and the binding [3] was “binds”. For the same substance, the binding (FLAG-tagged GABARAP) was “no binding” and the binding (FLAG–YIPF3 (human)) was “binds”.
